Some of these results come from one statement about several compounds together.
Experiment: Aerobic stability of grass silage (PVC silos, method of Honig)
Design: species or system ryegrass
Details: statistically significant

CCC(=O)O [Propionic Acid, Propionic acid]
Improvement of aerobic stability over the control: greater than 95 hours
